These are yes or no findings as the source states them, for the method shown. Some binding calls cover weakened binding; strength is not graded here.
Tests used:
[1] = biological target: recombinant GST-SNAP25197 (UniProt P60880); test: BLI (Octet Red96), raw curves; example: anti-GST biosensor loaded with GST-SNAP25197, serially diluted IgG as analyte; the legend says IgG on AMC biosensors
[2] = biological target: recombinant GST-SNAP25197 (UniProt P60880); test: BLI (Octet Red96), aligned curves; example: anti-GST biosensor loaded with GST-SNAP25197, serially diluted IgG as analyte; the legend says IgG on AMC biosensors
[3] = biological target: recombinant GST-SNAP25197 (UniProt P60880); test: Western blot, hybridoma culture supernatant 1:100 on 0.5 ug GST-SNAP25197
[4] = biological target: endogenous SNAP25197 in total cell lysate of BoNT/A-treated N2-42F cells (mouse) (UniProt P60879); test: sandwich ELISA of N2-42F lysates, B4 IgG as capture, C16 IgG-HRP as detection
recombinant GST-SNAP25FL = recombinant GST-SNAP25FL (UniProt P60880); test: Western blot, hybridoma culture supernatant 1:100 on 0.5 ug GST-SNAP25FL

By UniProt entry, the sequences of proteins in these tests, tags left out. Residues count along the entry.
UniProt P60880, 1-197: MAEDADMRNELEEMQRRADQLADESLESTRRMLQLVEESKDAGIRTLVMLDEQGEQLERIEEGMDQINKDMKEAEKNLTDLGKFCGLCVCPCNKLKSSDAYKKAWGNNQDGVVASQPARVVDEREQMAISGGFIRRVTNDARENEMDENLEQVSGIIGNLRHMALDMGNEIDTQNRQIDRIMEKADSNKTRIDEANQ
UniProt P60880, whole entry: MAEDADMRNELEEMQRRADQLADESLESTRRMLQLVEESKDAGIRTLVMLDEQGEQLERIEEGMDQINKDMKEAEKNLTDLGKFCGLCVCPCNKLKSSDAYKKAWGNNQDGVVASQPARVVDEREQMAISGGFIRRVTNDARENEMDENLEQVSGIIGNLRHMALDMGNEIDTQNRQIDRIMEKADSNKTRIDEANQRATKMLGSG
UniProt P60879, 1-197: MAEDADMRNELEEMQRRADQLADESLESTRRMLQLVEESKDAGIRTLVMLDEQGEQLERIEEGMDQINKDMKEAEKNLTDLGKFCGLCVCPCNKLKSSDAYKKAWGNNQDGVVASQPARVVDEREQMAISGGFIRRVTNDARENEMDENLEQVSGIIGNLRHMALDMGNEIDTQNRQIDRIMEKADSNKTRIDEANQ

Binder	binding [1]	binding [2]	binding [3]	binding [4]	binding (recombinant GST-SNAP25FL)
C16 IgG (antibody, V domains shown) VH: EVQLQQSGAELARPGASVQMSCKAFGYTFTNYTMHWVRQRPGQGLEWIGFINPSSDYTNYNQKFKDKATLSADKSSSTAYMQLSSLTSEDSAVYYCARRIFYNGRTYAAMDYWGQGTSVTVSS VL: DIVMTQSPASLAVSLGQRATISCRASKSVSSSGYSYMHWYQQKPGQPPKLLIYLASNLESGVPARFSGSGSGTDFTLNIHPVEEEDAATYYCQHSRELPLTFGAGTKLELK	binds	binds	binds	–	–
C4 IgG (antibody, V domains shown) VH: DVKLQESGPGLVKPSQSLSLTCTVTGYSITSDYAWNWIRQFPGNKLEWMGYISYSVGTRYNPSLKSRISITRDTSKNQFFLLLKSVTNEDTATYFCARKGEYGFAYWGQGTLVTVSA VL: DIVMTQSPASLAVSLGQRATISCRASKSVSTSGYSYMHWYQQKPGQPPKLLIYLASNLESGVPARFSGSGSGTDFTLNIHPVEEEDAATYYCQHSRELPLTFGAGTKLELK	binds	binds	binds	–	–
C16 IgG-HRP conjugate (antibody, V domains shown) VH: EVQLQQSGAELARPGASVQMSCKAFGYTFTNYTMHWVRQRPGQGLEWIGFINPSSDYTNYNQKFKDKATLSADKSSSTAYMQLSSLTSEDSAVYYCARRIFYNGRTYAAMDYWGQGTSVTVSS VL: DIVMTQSPASLAVSLGQRATISCRASKSVSSSGYSYMHWYQQKPGQPPKLLIYLASNLESGVPARFSGSGSGTDFTLNIHPVEEEDAATYYCQHSRELPLTFGAGTKLELK	–	–	–	binds	–
C7 IgG (antibody, V domains shown) VH: QVQLVETGGGLVQPKGSLKLSCAASGFTFNTNAMNWVRQAPGKGLEWVARIRSKSNNYATYYADSVKDRFTISRDDSQSLLYLQMNNLKTEDTAMYYCVYGRSYGGLSYWGQGTLVTVSA VL: DIVMTQSPASLAVSLGQRATISCRASKSVSSSGYSYMHWYQQKPGQPPKLLIYLASNLESGVPARFSGSGSGTDFTLNIHPVEEEDAATYYCQHSRELPLTFGAGTKLELK	binds	binds	binds	–	–
C24 IgG (antibody, V domains shown) VH: EVKLVESGGGLVQPKGSLKLSCAASGYTFNTYAMNWVRQAPGKGLEWVARIRSKSNNYTTYYADSVKDRFTISRDDSQSMLYLQINNLKTEDTAMYYCVGQILYYYVGSPAWFAYWGQGTLVTVSA VL: DIVMTQSPASLAVSLGQRATISCRASKSVSTSGYSYMHWYQQKPGQPPKLLIFLASNLESGVPARFSGSGSGTDFTLNIHPVEEEDAATYYCQHSRELPWTFGGGTKLEIK	binds	binds	binds	–	–
C14 IgG (antibody, V domains shown) VH: EVKLVESGGGLVQPKGSLKLSCAASGFTFNTNAMNWVRQAPGKGLEWVARIRSKSDNYATYYADSVKDRFTISRDDSPSMLYLQMNNLKTEDTAMYYCVYGRSYGGLGYWGQGTLVTVSA VL: DIVLTQSPASLAVSLGQRATISCRASKSVSTSGYSYVHWYQQKPGQPPKLLIYLASNLESGVPARFSGSGSGTDFTLNIHPVEEEDAATYYCQHSRELPLTFGAGTKLELK	–	–	binds	–	–
D2 IgG (antibody, V domains shown) VH: DVKLQESGPGLVKPSQSLSLTCSVTGYSITSGYYWNWIRQFPGNKLEWMGYIRYDGSNNYNPSLKNRISITRDTSKNQFFLKLNSVTTEDTASYYCARDRDSSYYFDYWGQGTALTVSS VL: DIVMTQSSSYLSVSLGGRVTITCKASDHINNWLAWYQQKPGNAPRLLISDTTSLETGVPSRFSGSGSGKDYTLSITSLQTEDVATYYCQQYWSAPPTFGGGTKLEIK	–	–	–	–	binds
